Assay: in vivo
Conditions: Wistar, rat, po, 10 mg/kg

Compound: CC[C@H](C)[C@@H]1NC(=O)[C@@H]2CCCN2C(=O)[C@H](Cc2ccccc2)NC(=O)[C@H](C(C)(C)C)NC(=O)c2csc(n2)[C@H]([C@@H](C)CC)NC(=O)[C@@H]2CCCN2C1=O
- bioavailability: 51%
